The values that follow come from paper PMC7819943, “Rice protein-binding microarrays: a tool to detect cis-acting elements near promoter regions in rice”.

Sequences of proteins named here, by UniProt entry; tags and fusion partners are left off.
UniProt Q0JBA9, entry or part of it: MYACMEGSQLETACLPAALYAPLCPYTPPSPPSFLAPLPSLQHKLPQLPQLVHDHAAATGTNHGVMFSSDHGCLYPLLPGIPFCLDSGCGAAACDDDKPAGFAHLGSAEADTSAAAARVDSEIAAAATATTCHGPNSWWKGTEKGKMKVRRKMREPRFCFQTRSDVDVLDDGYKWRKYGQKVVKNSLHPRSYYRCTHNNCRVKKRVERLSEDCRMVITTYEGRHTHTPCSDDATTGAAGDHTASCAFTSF

Some of the results follow.

The target of the assay is OsWRKY34 (Oryza sativa, UniProt Q0JBA9 1-250). As to the kind of experiment: protein-binding microarray (RPBM); PBS, 2% BSA, 51.3 ng/ul salmon testes DNA, 50 uM zinc acetate, 200 nM TF, 25 C, 1 h; high values mean tight binding. The following applies: protein: recombinant; tags: N-terminal polyhistidine and DsRed monomer fusion (pET32a); label: CyDye5-dUTP incorporated in the synthesized complementary strand; 3' TTTTT single-stranded linker to array surface; dsDNA, one strand shown. The essentials:
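Using Ni–NTA, transcription factors fused N-terminally to polyhistidine and DsRed were purified after expression in E. coli BL21-CodonPlus. These were incubated at 200 nM with a blocked, double-stranded custom Agilent array for 1 h at 25 °C in a buffer containing 50 µM zinc acetate, and the array was washed. The binding signal is per-feature fluorescence intensity (arbitrary units) on an Axon 4000B scanner.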
Turning to “GGAATACATTTATATCGCTCTCTTTTATATTATAGGTCATCGGAGTCACCTAGTGCAG”, the binding signal was 8850 fluorescence intensity (a.u.). As for “CTCTGCTTCTCGTGTTCTTGCTGTCCGCCGATCGCCGGGTCGGAGTCACCTAGTGCAG”, the binding signal is 8230 fluorescence intensity (a.u.). Turning to “TAATAAAGATGGTTTCTGTCCGTTTCGTTTCCGTATCGTTCGGAGTCACCTAGTGCAG”, the binding signal was 8390 fluorescence intensity (a.u.).

Regarding “CATCTTTTATGGGCCTTACCGGTAGATGGCCGTACGGCCCCGGAGTCACCTAGTGCAG”, the binding signal was 10500 fluorescence intensity (a.u.). With “TCGCTTCACTGCTTCCCTACTACACACTCGCCGCCATTCCCGGAGTCACCTAGTGCAG” the figure was 8270 fluorescence intensity (a.u.). With “TCCCTCGTCACCATCCTCCTCACCTCCTCCGCGGTGGCCGCGGAGTCACCTAGTGCAG” the figure was 9890 fluorescence intensity (a.u.); with “GGAGGGATATGAATTTTTCCTTTGATGCATTCCTTTGAAACGGAGTCACCTAGTGCAG”, 8390 fluorescence intensity (a.u.). With “GGAGCAGCAAGTACACACTTCAATTCTTTTCTGCTTCGAACGGAGTCACCTAGTGCAG” the figure was 9290 fluorescence intensity (a.u.); with “CTTTGTGCTGGACCGACGACGTCGTTCGCTCTTTTATCCTCGGAGTCACCTAGTGCAG”, 9040 fluorescence intensity (a.u.); with “TGGTAATTTAGTGTCCATTATGGTGTTTCTTAATTGCTTTCGGAGTCACCTAGTGCAG”, 8560 fluorescence intensity (a.u.). Take “GTGGTGCATCAGTATATTCTCCAATGTTAATGTTCTCTCTCGGAGTCACCTAGTGCAG”: the binding signal is 8700 fluorescence intensity (a.u.).

“GTTGGTCGGTGGCCGCCCGTCGCTTCTCCTCTTCCGACGCCGGAGTCACCTAGTGCAG”: the binding signal is 8080 fluorescence intensity (a.u.). The value for “ATATCGGTCATGACGTCGTGTGTGTCGCATTGTACATGATCGGAGTCACCTAGTGCAG” was 9070 fluorescence intensity (a.u.); that for “GGCCGAATCCTTTTCTCTCCCTTCGGCTCAATTGGCCCAGCGGAGTCACCTAGTGCAG” was 9900 fluorescence intensity (a.u.). Consider “CGCGACCCCGTTCAGTCAACCGTCATTCCGTCTCTTGCTCCGGAGTCACCTAGTGCAG”, for which the binding signal is 9280 fluorescence intensity (a.u.). Consider “GACTTACCTTCATTATTATCGAGTTGATATTTTCAATGTTCGGAGTCACCTAGTGCAG”, for which the binding signal is 8310 fluorescence intensity (a.u.).

With “CGCTCAATTTCTATCCCTCTGTCTTTACTTCTCTCTCCATCGGAGTCACCTAGTGCAG”, the binding signal was 10500 fluorescence intensity (a.u.). In the case of “CTTCCTATTCAATTTGGGCCAAACTCCCATTCATTTGGCCCGGAGTCACCTAGTGCAG”, the binding signal is 10200 fluorescence intensity (a.u.).

For the sequence “ATGATGTGTTTCAGTCTGTACCATATCGTTTTGACGTTTTCGGAGTCACCTAGTGCAG”, the binding signal was 8520 fluorescence intensity (a.u.). Turning to “GCCTATTCATTCTCTGGAGATCCATTAAATTTGAATGTCTCGGAGTCACCTAGTGCAG”, the binding signal was 8550 fluorescence intensity (a.u.). With “ATCCAATCTTGCCGCTCTCTGGGCTCACAGTTTCTTAATTCGGAGTCACCTAGTGCAG” the figure was 9160 fluorescence intensity (a.u.).

On to “CTTTTTCCTGACTGCAGTCTCCCAGGATCGTAATCTTGTACGGAGTCACCTAGTGCAG”, for which the binding signal is 8360 fluorescence intensity (a.u.). In the case of “GCTCCATCATGCATATTCTATCTATATCCAAAGCTTAACACGGAGTCACCTAGTGCAG”, the binding signal is 8530 fluorescence intensity (a.u.). With “CCCTTGACGCTTCATTTCCGTCTTCTCATTTAAACTTTATCGGAGTCACCTAGTGCAG”, the binding signal is 8130 fluorescence intensity (a.u.). In the case of “ACACCGTTGATTTTTTAGTATGTGTTTAACCGTTCGTCTTCGGAGTCACCTAGTGCAG”, the binding signal is 8800 fluorescence intensity (a.u.). For the sequence “GCAATTAATTAATTCTCCATCGTTGCAAGTTAGCCAATTTCGGAGTCACCTAGTGCAG”, the binding signal was 8350 fluorescence intensity (a.u.). As for “ACCCGTTGTAACGCGCGAGCTTATTTTTTTCTCTAGTCTTCGGAGTCACCTAGTGCAG”, the binding signal is 14300 fluorescence intensity (a.u.). With “GTCCAGGTTGGTTTTCATGGGTCGAGTGGCATCAGATGGGCGGAGTCACCTAGTGCAG” the figure was 10100 fluorescence intensity (a.u.); with “ATTGCCAAATTTCTTGATTCGCTGCCAAGTACTACATCCCCGGAGTCACCTAGTGCAG”, 8920 fluorescence intensity (a.u.). With “GAAGAAGGGAGGAGGAGGGGAGGGAGAGGAGTTGGAAGAGCGGAGTCACCTAGTGCAG”, the binding signal was 9020 fluorescence intensity (a.u.).

As to “GTCCTTGTTTGATTTGCTGCCATCAGAAAGAGAGATCTCTCGGAGTCACCTAGTGCAG”, the binding signal was 9100 fluorescence intensity (a.u.).

In the case of “TTGGGTGTGCTAACTATTGGGTGGTATATTCTGAAAATTCCGGAGTCACCTAGTGCAG”, the binding signal is 11900 fluorescence intensity (a.u.). The value for “TAACCTTTTTAGCTTTTATATAGTTCTATTTTGCTTTTATCGGAGTCACCTAGTGCAG” was 8830 fluorescence intensity (a.u.); that for “CTTTTTTTTATAGATGATGAGGGCGGGTGAGCAGTATTGTCGGAGTCACCTAGTGCAG” was 9130 fluorescence intensity (a.u.). On to “ACTGGTGTCCCTGTTTTGCTCTGTAGTATAAAGCCACGCACGGAGTCACCTAGTGCAG”, for which the binding signal was 8820 fluorescence intensity (a.u.). With “CGTCGCCTTTCCTCTCTCTCTCTCTCTCTCTCTCTGCGCACGGAGTCACCTAGTGCAG” the figure was 8370 fluorescence intensity (a.u.). The value for “TCTCTCGATCCCCTAACGCGCTCTCTCTCTTTCTCTCTCGCGGAGTCACCTAGTGCAG” was 10400 fluorescence intensity (a.u.). With “CCACCACCACCAGTCCATTACCGCTCGCTCGCTGCTCCCCCGGAGTCACCTAGTGCAG” the figure was 9490 fluorescence intensity (a.u.); with “ACAAACACTCGAGCTCACACCTGCTCGATCAAAATCCTCCCGGAGTCACCTAGTGCAG”, 8780 fluorescence intensity (a.u.); with “AGTTATAATGTTGCCTACGCTGATCTACTGTTTTTCTTCTCGGAGTCACCTAGTGCAG”, 8150 fluorescence intensity (a.u.). With “GGATAAAATCGTAGCTAGTATTATATTTTGTTATATTCATCGGAGTCACCTAGTGCAG”, the binding signal was 8050 fluorescence intensity (a.u.). In the case of “AAATAGTCTTCACCCGTTACAACGCATGTGCATTTTTTATCGGAGTCACCTAGTGCAG”, the binding signal was 10300 fluorescence intensity (a.u.).
